Test results reported in PubChem BioAssay AID256 (DTP/NCI, 2004).
The list does not hold the whole screen: it gathers tests that were run many times, whatever their T/C, doses with no T/C, and many T/C values between a quarter and a half above the control. Further doses and runs are listed elsewhere. T/C: endpoint of the treated group in % of that of the vehicle group. Some doses have a count of surviving animals in place of a T/C: the source files T/C as zero there, which appears to mark a toxic dose or a test without result, not a measured value. Some survivor counts are full or nearly so, which does not show that the dose was tolerated: survival well below the control is almost never listed, so the zero probably covers shortened survival too. Counts of survivors are from the toxicity check (mostly the fifth day) where no day follows; animals may have died later. Schedule codes are those of the source, taken here to give the interval after Q, in days (D) or hours (H), and the number of doses after X. Some schedules carry Z or #; the key to these is not given. Some entries hold several experiments; their values stand side by side, smallest first. Some molecules as drawn cover several salts, stereoisomers or complexes of the source; a dose is that of the sample tested. For survival time, the PubChem record calls one and a half times the control and up active, and a quarter to a half above the control has no call in these data; cut-offs in other NCI protocols can differ.

System: CD2F1 mice, L1210 leukemia ip, survival T/C
Assay: NCI In Vivo Anticancer Drug Screen. Data for tumor model L1210 Leukemia (intraperitoneal) in CD2F1 (CDF1) mice
Settings: T/C endpoint: mean survival time, higher T/C = longer survival
How it was run: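 Tumor-bearing mice (transplanted tumor) were split into treated and vehicle control groups, and the measured endpoint of each treated group was divided by that of its vehicle controls.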

[1] = dose: 400.0 mg/kg/injection, schedule: Q04DX003 (ip), vehicle: saline with Tween-80
[2] = dose: 200.0 mg/kg/injection, schedule: Q01DX009 (ip), vehicle: Klucel (hydroxypropylcellulose) (HPC)

With `CN(C)[C@@H]1C(=O)C(C(=O)NCN2CCN(C(=N)N=C(N)N)CC2)=C(O)[C@@]2(O)C(=O)C3=C(O)c4c(O)cccc4[C@@](C)(O)[C@H]3C[C@@H]12` the survivor count (dose: 2.5 mg/kg/injection, schedule: Q01DX001 (ip), vehicle: saline) was 5 of 6, the survivor count (dose: 5.0 mg/kg/injection, schedule: Q01DX001 (ip), vehicle: saline) was 2 of 6 and the survivor count (dose: 75.0 mg/kg/injection, schedule: Q01DX001 (ip), vehicle: saline) was 0 of 6. For the same compound, the survivor count (dose: 150.0 mg/kg/injection, schedule: Q01DX001 (ip), vehicle: saline) was 0 of 6 and the survivor count (dose: 300.0 mg/kg/injection, schedule: Q01DX001 (ip), vehicle: saline) was 0 of 6.
For `CC1=CC=CC(C)(C(Cl)Cl)C1=O` (stereo not drawn), the survivor count [1] was 1 of 6.
`O=C1C=C(N2CC2)C(=O)C=C1N1CC1` was tested, and the T/C (dose: 0.12 mg/kg/injection, schedule: Q01DX Z (ip), vehicle: saline) was 135 % of control, the T/C (dose: 0.25 mg/kg/injection, schedule: Q01DX Z (ip), vehicle: saline) was 130 and 135 % of control and the T/C (dose: 0.5 mg/kg/injection, schedule: Q01DX Z (ip), vehicle: saline) was 135 and 138 % of control. For the same compound, the survivor count (dose: 1.0 mg/kg/injection, schedule: Q01DX Z (ip), vehicle: saline) was 6 of 6 and the survivor count (dose: 2.0 mg/kg/injection, schedule: Q01DX Z (ip), vehicle: saline) was 4 of 6.
With `Cc1cccc(Nc2c3ccccc3nc3ccccc23)c1` the survivor count (dose: 200.0 mg/kg/injection, schedule: Q01DX001 (ip), vehicle: saline with Tween-80) was 2 of 6 and the survivor count (dose: 400.0 mg/kg/injection, schedule: Q01DX001 (ip), vehicle: saline with Tween-80) was 0 of 6.
For `NCCc1cc(O)c(O)cc1O`, the survivor count (dose: 200.0 mg/kg/injection, schedule: Q01DX009 (ip), vehicle: saline) was 1 of 3.
With `N=C1c2ccccc2-c2ccccc21` the survivor count (dose: 200.0 mg/kg/injection, schedule: Q01DX009 (ip), vehicle: saline with Tween-80) was 1 of 6.
With `N#CCCC(C#N)(c1cccnc1)N1CCOCC1` (stereo not drawn) the survivor count (dose: 50.0 mg/kg/injection, schedule: Q01DX009 (ip), vehicle: Klucel (hydroxypropylcellulose) (HPC)) was 0 of 3 and 1 of 3, the survivor count (dose: 50.0 mg/kg/injection, schedule: Q04DX002 (ip), vehicle: saline with Tween-80) was 1 of 3 and the survivor count (dose: 100.0 mg/kg/injection, schedule: Q01DX009 (ip), vehicle: Klucel (hydroxypropylcellulose) (HPC)) was 0 of 3. For the same compound, the survivor count (dose: 100.0 mg/kg/injection, schedule: Q04DX002 (ip), vehicle: saline with Tween-80) was 0 of 3 and the survivor count [2] was 0 of 3.
In the case of `CCOC(=O)Nc1cc2c(c(N)n1)N=C(c1ccc(-c3ccccc3)cc1)CN2`, the T/C (dose: 25.0 mg/kg/injection, schedule: Q01DX001 (ip), vehicle: Klucel (hydroxypropylcellulose) (HPC)) is reported as 136 % of control and the survivor count (dose: 100.0 mg/kg/injection, schedule: Q01DX001 (ip), vehicle: Klucel (hydroxypropylcellulose) (HPC)) is reported as 1 of 6.
`CN(C)CCCCc1cn(-c2ccccc2)c2ccccc12` was tested, and the survivor count (dose: 75.0 mg/kg/injection, schedule: Q01DX009 (ip), vehicle: saline) was 1 of 6, the survivor count (dose: 115.0 mg/kg/injection, schedule: Q01DX009 (ip), vehicle: saline) was 0 of 6 and the survivor count (dose: 170.0 mg/kg/injection, schedule: Q01DX009 (ip), vehicle: saline) was 0 of 6.
In the case of `O=C(O)c1c2c(nc3ccccc13)Cc1ccccc1-2`, the survivor count (dose: 200.0 mg/kg/injection, schedule: Q01DX009 (ip), vehicle: water) is reported as 3 of 6, the survivor count (dose: 400.0 mg/kg/injection, schedule: Q01DX009 (ip), vehicle: water) is reported as 0 of 6 and the survivor count [1] is reported as 0 of 6.
In the case of `CCN(CC)CC[C-]=O.[NH-]CC[NH-].[Pd]`, the survivor count (dose: 100.0 mg/kg/injection, schedule: Q04DX003 (ip), vehicle: water) is reported as 0 of 6 and the survivor count (dose: 200.0 mg/kg/injection, schedule: Q04DX003 (ip), vehicle: water) is reported as 0 of 6.
In the case of `CC(=Nc1ccccc1)C1=C(O)C(Cc2cccc(F)c2)NC1=O` (stereo not drawn), the T/C (dose: 200.0 mg/kg/injection, schedule: Q04DX002 (ip), vehicle: saline with Tween-80) is reported as 125 % of control.
`OCc1ccn2c1CCC2` was tested, and the survivor count (dose: 25.0 mg/kg/injection, schedule: Q01DX009 (ip), vehicle: Klucel (hydroxypropylcellulose) (HPC)) was 6 of 6 and the survivor count [2] was 3 of 6.
